Record: PubChem BioAssay AID1224828 (NIAID, 2016)
Assay: 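Regulators linking TLR4 signalling to p65 nuclear translocation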 (primary screen). Cells: mouse RAW264.7 G9 macrophage reporter cells (GFP-p65, Tnf promoter-mCherry). Reagents: siRNA pool against mouse genes, 100 nM. Duration: 2 days siRNA transfection, then 40 min LPS before fixation. Challenge: LPS (Salmonella minnesota R595) at 10 ng/ml. Measurement: 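Microscopy ratio of nuclear to perinuclear-ring GFP-p65 signal, scaled to the plate median; gene score is the average of two replicate robust z-scores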. Scale: p65 translocation robust z-score: higher = more nuclear NF-kappaB p65 after LPS than the plate median; nuclear/cytoplasmic p65 ratio: higher = more nuclear NF-kappaB p65. Rule for the call: 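Called active when z exceeds 3.3 or falls under -1.56 (median of Tlr4 controls), giving activity score of at least 50; no calls for control wells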. Calls: active = hit (p65 shift raised or lowered); inactive = no clear change.
The deposit covers about 17,000 reagents; this is a random part of them. Over the whole deposit, 762 (4.5%) got an active call. 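Active calls include both raised and lowered p65 entry, mostly lowered; wells with fewer than 50 cells lack a z-score.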 The raw values are shown without normalisation. The numbers tell different reagents against one gene apart.

target gene	reagent no.	p65 translocation robust z-score	nuclear/cytoplasmic p65 ratio, rep 1	nuclear/cytoplasmic p65 ratio, rep 2	low cell count flag	outcome
Rpn2	1		1.59	1.1	fewer than 50 cells per well; well left out of scoring	inactive
Or14j10	1	0.38	1.82	1.55	enough cells to score	inactive
Thsd4	1	-0.16	1.6	1.58	enough cells to score	inactive
Qdpr	1	1.15	1.65	1.7	enough cells to score	inactive
Rdh16f2	1	-0.93	1.48	1.58	enough cells to score	inactive
H2-Ab1	1		0	1.36	fewer than 50 cells per well; well left out of scoring	inactive
H2-Ab1	2		1.4	1.23	fewer than 50 cells per well; well left out of scoring	inactive
Slfn3	1		1.38	1.16	fewer than 50 cells per well; well left out of scoring	inactive
4931414P19Rik	1		1.17	1.35	fewer than 50 cells per well; well left out of scoring	inactive
Tial1	1	-0.58	1.48	1.39	enough cells to score	inactive
Rab27a	1	0.93	1.64	1.66	enough cells to score	inactive
Asap1	1	-0.31	1.62	1.53	enough cells to score	inactive
Spata1	1	0.46	1.38	1.3	enough cells to score	inactive
Casp12	1	-2.16	1.18	1.53	enough cells to score	active
Wdr20	1	-1.78	1.13	1.07	enough cells to score	active
Ufc1	1		1.3	1.35	fewer than 50 cells per well; well left out of scoring	inactive
Mlycd	1	1.27	1.94	1.82	enough cells to score	inactive
Map1lc3b	1	-1.87	1.45	1.26	enough cells to score	active
Prr13	1	-0.1	1.43	1.52	enough cells to score	inactive
Clip3	1	1.32	1.84	1.78	enough cells to score	inactive
Rfesd	1	-0.4	1.49	1.68	enough cells to score	inactive
Ifi205	1	0.05	1.38	1.44	enough cells to score	inactive
Exog	1	0.73	1.68	1.58	enough cells to score	inactive
Tbc1d24	1	-1.24	1.28	1.33	enough cells to score	inactive
Mcoln2	1	-2.31	1.35	1.21	enough cells to score	active
Chd9	1	0.52	1.63	1.75	enough cells to score	inactive
Acad9	1	-0.45	1.49	1.66	enough cells to score	inactive
Kif3a	1	-0.52	1.36	1.35	enough cells to score	inactive
Trim28	1	0.76	1.55	1.67	enough cells to score	inactive
Arhgap12	1	0.96	1.59	1.8	enough cells to score	inactive
Nrsn1	1	-1.05	1.26	1.11	enough cells to score	inactive
Ptcd1	1	-0.12	1.34	1.22	enough cells to score	inactive
Sos1	1	1.08	1.61	1.8	enough cells to score	inactive
Tmem38b	1		1.21	1.51	fewer than 50 cells per well; well left out of scoring	inactive
Tbc1d17	1		1.16	1.4	fewer than 50 cells per well; well left out of scoring	inactive
Cryba1	1	-1.81	1.15	1.13	enough cells to score	active
Or5as1	1	0.95	1.88	1.66	enough cells to score	inactive
Faap24	1		1.18	1.47	fewer than 50 cells per well; well left out of scoring	inactive
Mtx1	1	-0.29	1.47	1.25	enough cells to score	inactive
Flna	1	-1.15	1.26	1.17	enough cells to score	inactive

A few values from above:
Chd9, nuclear/cytoplasmic p65 ratio, rep 2 → 1.75
For “outcome”, Tbc1d17 reads inactive
Rpn2, low cell count flag: fewer than 50 cells per well; well left out of scoring
Asap1, nuclear/cytoplasmic p65 ratio, rep 1 = 1.62
Under “outcome”, Arhgap12 has inactive
